Not every detail of the peptide structures is certain; ends, links or a residue may be inferred. Peptide text beside a SMILES is read from it. * marks the point of attachment. FITC = O=C1OC2(c3ccc(O)cc3Oc3cc(O)ccc32)c2ccc(NC(=S)*)cc21
What was measured:
[1] = molecular target: Cdk5/P25 (Homo sapiens, UniProt Q00535); experiment: In vitro kinase (pad) assay of active Cdk5/P25 with histone H1 as substrate; type: biochemical; conditions: TFP5 at a concentration of 0.05 ng, FIG. 17
Experimental: (§1) Kinase assays were performed as previously described (Veeranna, et al., J Neurosci 18(11), 4008-4021, 1998). Briefly, 7 days in culture (7 DIC) primary rat cortical neurons were infected with P25, P35, Cdk5 wild-type, dominant negative-Cdk5 and P5 using the lentiviral gene delivery as described earlier. Cdk5 was immunoprecipitated using the polyclonal C8 antibody overnight at 4° C. and immunoglobulin isolated using Protein A sepharose beads for 2 hours at 4° C. Immunoprecipitates were washed three times with lysis buffer and then once with 1× kinase buffer containing 20 mM Tris-Cl pH 7.4, 1 mM EDTA, 1 mM EGTA, 10 mM MgCl2, 10 mM sodium fluoride and 1 mM sodium orthovanadate. Endogenous Cdks were immunoprecipitated from HEK 293 cells using their respective antibodies and treated as above. […]
(§2) In a dose-dependent kinase assay the effective inhibitory concentration of P5 for both the Cdk5/P25 and Cdk5/P35 complexes was evaluated. […]
(§3) P5, a 24 amino acid peptide derived from Cdk5 regulator p35, was modified by conjugating it with TAT PTD at the C-terminal end and with FITC (using a GGG linker) at the N-terminus to produce a fluorescent (FITC-labeled) TFP5 (SEQ ID NO: 2) peptide. In a dose-dependent kinase assay the effective inhibitory concentration of TFP5 for both the Cdk5/P25 and Cdk5/P35 complexes was evaluated. […]

Amino acid sequences for entries named in this document (tags omitted).
UniProt Q00535, whole entry, species assumed: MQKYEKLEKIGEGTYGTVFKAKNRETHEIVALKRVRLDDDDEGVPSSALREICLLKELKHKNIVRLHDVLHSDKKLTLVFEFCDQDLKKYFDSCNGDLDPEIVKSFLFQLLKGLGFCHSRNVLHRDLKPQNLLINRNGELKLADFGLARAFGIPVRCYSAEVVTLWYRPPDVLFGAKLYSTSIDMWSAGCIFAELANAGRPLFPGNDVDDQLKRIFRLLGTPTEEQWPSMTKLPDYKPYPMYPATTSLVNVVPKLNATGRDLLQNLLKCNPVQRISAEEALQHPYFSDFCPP
UniProt Q03114, whole entry: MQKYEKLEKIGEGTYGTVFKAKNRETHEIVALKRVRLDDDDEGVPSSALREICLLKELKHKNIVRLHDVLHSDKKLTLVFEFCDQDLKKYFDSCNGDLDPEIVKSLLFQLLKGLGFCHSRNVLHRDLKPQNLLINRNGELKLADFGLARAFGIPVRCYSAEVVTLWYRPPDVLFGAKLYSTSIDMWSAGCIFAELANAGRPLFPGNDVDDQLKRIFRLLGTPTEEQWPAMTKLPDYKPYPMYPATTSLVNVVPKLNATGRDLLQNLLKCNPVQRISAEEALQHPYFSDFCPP

[2] = molecular target: Cdk5/P35 (Homo sapiens, UniProt Q00535); experiment: In vitro kinase (pad) assay of active Cdk5/P35 with histone H1 as substrate; type: biochemical; conditions: TFP5 at a concentration of 0.05 ng, FIG. 17
Experimental: as §1, §2, §3

[3] = molecular target: T1, Cdk5/P35 (Rattus norvegicus, UniProt Q03114); experiment: Endogenous Cdk5/p35 activity in cortical neurons treated with TFP5; type: cell-based; conditions: 0.05 μM TFP5
T1 construct: endogenous in cells; host or cells: E-18 rat cortical neurons

CC[C@H](C)[C@H](NC(=O)[C@H](CCC(N)=O)NC(=O)[C@H](CC(C)C)NC(=O)[C@H](CCSC)NC(=O)[C@H](CCCCN)NC(=O)[C@H](CO)NC(=O)[C@H](CO)NC(=O)[C@H](CCSC)NC(=O)[C@H](CC(C)C)NC(=O)[C@H](CC(N)=O)NC(=O)[C@@H](NC(=O)[C@@H](NC(=O)[C@H](CO)NC(=O)[C@H](CC(C)C)NC(=O)[C@H](CS)NC(=O)[C@H](CCCNC(=N)N)NC(=O)[C@H](CC(=O)O)NC(=O)[C@H](Cc1c[nH]c2ccccc12)NC(=O)[C@H](Cc1ccccc1)NC(=O)[C@H](C)NC(=O)[C@H](CCC(=O)O)NC(=O)[C@H](CCCCN)NC(=O)CNC(=O)CNC(=O)CNC(=S)Nc1ccc2c(c1)C(=O)OC21c2ccc(O)cc2Oc2cc(O)ccc21)C(C)C)[C@@H](C)CC)C(=O)N[C@@H](CC(N)=O)C(=O)N[C@@H](C)C(=O)N[C@@H](Cc1ccc(O)cc1)C(=O)N[C@@H](C)C(=O)N[C@@H](CCCNC(=N)N)C(=O)N[C@@H](C)C(=O)N[C@@H](C)C(=O)N[C@@H](CCCNC(=N)N)C(=O)N[C@@H](CCCNC(=N)N)C(=O)N[C@@H](C)C(=O)N[C@@H](C)C(=O)N[C@@H](CCCNC(=N)N)C(=O)N[C@@H](CCCNC(=N)N)C(=O)O [TFP5] ({FITC}-GGGKEAFWDRCLSVINLMSSKMLQINAYARAARRAARR-OH)
Cdk5/p25 activity [1]: significantly decreased | Cdk5/p35 activity [2]: significantly decreased | Endogenous Cdk5/p35 activity [3]: unaffected
